# Record: PubChem BioAssay AID652243 (Drosophila RNAi Screening Center, 2013)
# Purpose: 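Knock-downs that decrease or increase androgen receptor reporter signal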 (primary screen)
# System: Drosophila S2R+ cells
# Reagents: long dsRNA against Drosophila genes
# Timing: 72 h (48 h, then 24 h hormone)
# Challenge: synthetic androgen R1881 at 10 nM for 24 h
# Measurement: 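Firefly light from an androgen-responsive reporter and Renilla control light per well, raw and unnormalised, for each of two replicates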
# Reading the numbers: firefly reporter light: higher = more light from androgen-responsive reporter; Renilla control light: higher = more constitutive control signal (cell number, transfection)
# Rule for the call: 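Across duplicate plates, a knock-down whose log firefly/Renilla ratio shifted a set fold down or up from the GFP/LacZ control mean was a hit; the downward cut appears as both 1.5 and 3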
# Meaning of the calls: active = hit: reporter lowered or raised; inactive = no hit
# The deposit covers about 24,000 reagents; this is an unselected part of those with a known target gene and a result. Over the whole deposit, 246 (1%) were called active. 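Plates not normalised; calls are printed but the firefly/Renilla ratio behind them is not deposited; fold cut for lowering reported inconsistently.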 Raw values vary from plate to plate and are shown uncorrected. The numbers tell different reagents against one gene apart. Names joined by + are all predicted targets of the reagent. Not given: the amount of reagent.
gene,reagent no.,"firefly reporter light, replicate 1","firefly reporter light, replicate 2","Renilla control light, replicate 1","Renilla control light, replicate 2",Call
milt,1,1.21e5,1.20e5,5.07e5,4.27e5,inactive
milt,2,1.57e5,1.67e5,5.94e5,6.05e5,inactive
milt,3,5.77e5,6.17e5,2.06e6,1.89e6,inactive
milt,4,8.81e5,4.87e5,2.10e6,1.29e6,inactive
mwh,1,35257,89602,8.90e5,7.13e5,inactive
mwh,2,3.52e5,3.68e5,5.85e5,7.92e5,inactive
mwh,3,6.38e5,7.57e5,1.49e6,1.84e6,inactive
CR40354,1,7.23e5,7.55e5,1.65e6,1.73e6,inactive
asrij,1,2.51e5,2.80e5,2.07e6,1.28e6,inactive
CG3104,1,6.20e5,4.79e5,7.86e5,8.94e5,inactive
alpha-Man-Ic,1,8.17e5,9.45e5,1.54e6,1.69e6,inactive
alpha-Man-Ic,2,2.39e5,2.45e5,3.45e5,6.77e5,inactive
CG3626,1,4.15e5,4.69e5,4.42e6,4.46e6,inactive
CG3626,2,3.37e5,2.63e5,5.52e5,3.57e5,inactive
Nlg1,1,2.56e5,2.75e5,3.60e5,2.96e5,inactive
Nlg1,2,88484,96875,2.96e6,2.43e6,inactive
Nlg1,3,1.08e5,73325,1.72e6,1.69e6,inactive
Nlg1,4,88862,95339,1.58e6,1.64e6,inactive
CG33253,1,2.83e5,1.16e5,9.09e5,4.34e5,inactive
CG33253,2,7.25e5,1.00e6,1.62e6,2.22e6,inactive
COX5B,1,2.19e5,1.71e5,1.79e6,1.61e6,inactive
modSP,1,1.64e5,2.03e5,2.97e6,3.29e6,inactive
modSP,2,84906,69212,1.89e6,1.69e6,inactive
modSP,3,6.76e5,5.11e5,2.10e6,2.23e6,inactive
Xpd,1,8.43e5,9.03e5,2.09e6,2.68e6,inactive
Xpd,2,1.63e5,2.09e5,3.09e5,4.68e5,inactive
CG6938,1,1.38e5,1.08e5,1.51e6,1.37e6,inactive
CG6938,2,4.84e5,4.44e5,1.28e6,1.27e6,inactive
CG8661,1,3.92e5,4.19e5,2.90e6,1.97e6,inactive
CG8661,2,6.15e5,6.25e5,1.59e6,1.75e6,inactive
CG10650,1,1.28e6,1.24e6,1.48e6,1.14e6,inactive
beta4GalNAcTB,1,2.04e5,2.11e5,2.59e6,2.75e6,inactive
lute,1,1.63e5,1.72e5,2.29e6,2.63e6,inactive
lute,2,1.03e5,81134,5.62e5,6.43e5,inactive
lute,3,4.81e5,6.38e5,9.10e5,7.58e5,inactive
lute,4,4.72e5,3.26e5,76128,27049,inactive
Ir48c,1,3.03e5,2.02e5,1.93e6,1.75e6,inactive
Rrp42,1,38733,54386,1.20e6,1.20e6,inactive
CG4669,1,1.35e6,1.06e6,7.88e5,8.59e5,inactive
Ist1,1,1.08e6,9.57e5,8.05e5,1.09e6,inactive
Ist1,2,9.36e5,9.27e5,8.41e5,7.45e5,inactive
CG13733,1,2.01e5,1.49e5,1.95e6,1.90e6,inactive
Atg10 + CG12822,1,2.28e5,1.77e5,1.99e6,1.87e6,inactive
CG18301,1,2.65e5,1.88e5,1.45e6,1.56e6,inactive
CG14613,1,83099,63972,6.76e5,6.96e5,inactive
CG14613,2,3.74e5,2.81e5,4.86e5,5.32e5,inactive
Cpr65Az,1,1.60e5,1.93e5,2.41e6,3.65e6,inactive
Cpr65Az,2,8.79e5,9.56e5,2.04e6,1.56e6,inactive
Cpr65Az,3,8.12e5,9.44e5,9.67e5,1.11e6,inactive
vkg,1,1.71e5,1.16e5,1.80e6,9.66e5,inactive
CG11588,1,1.30e5,1.38e5,2.84e5,2.66e5,inactive
CG11588,2,3.06e5,2.56e5,2.67e6,2.25e6,inactive
Tsp42Eb + CG30160,1,2.08e5,2.08e5,3.52e5,3.84e5,inactive
Tsp42Eb + CG30160,2,4.71e5,6.31e5,2.73e6,2.84e6,inactive
nop5,1,1.94e5,2.69e5,1.74e6,1.41e6,inactive
HSPC300,1,5.24e5,9.70e5,1.42e6,2.45e6,inactive
Or67b,1,2.94e5,2.63e5,3.14e6,2.02e6,inactive
CG15423,1,1.14e5,1.19e5,9.75e5,1.04e6,inactive
CG15423,2,5.67e5,7.00e5,1.65e6,1.65e6,inactive

Ordered by “Renilla control light, replicate 2” (ascending): some entries from above
gene,reagent no.,"firefly reporter light, replicate 1","firefly reporter light, replicate 2","Renilla control light, replicate 1","Renilla control light, replicate 2",Call
CG3626,2,3.37e5,2.63e5,5.52e5,3.57e5,inactive
alpha-Man-Ic,2,2.39e5,2.45e5,3.45e5,6.77e5,inactive
CG3104,1,6.20e5,4.79e5,7.86e5,8.94e5,inactive
asrij,1,2.51e5,2.80e5,2.07e6,1.28e6,inactive
alpha-Man-Ic,1,8.17e5,9.45e5,1.54e6,1.69e6,inactive
CR40354,1,7.23e5,7.55e5,1.65e6,1.73e6,inactive
mwh,3,6.38e5,7.57e5,1.49e6,1.84e6,inactive
CG3626,1,4.15e5,4.69e5,4.42e6,4.46e6,inactive
